Data taken from PMC8294330.
These are yes or no findings as the source states them, for the method shown.

Sequences of proteins named here, by UniProt entry; tags and fusion partners are left off.
UniProt P0A6X3: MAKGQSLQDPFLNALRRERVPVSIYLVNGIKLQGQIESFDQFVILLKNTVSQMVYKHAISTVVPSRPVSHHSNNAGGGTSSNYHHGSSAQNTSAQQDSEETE

Molecular target: Escherichia coli RNA chaperone Hfq (Escherichia coli) (UniProt P0A6X3)
Test: condition: 400 nM RNA, 400 nM Hfq hexamer, 1:1 and 1:3 RNA:PNPase trimer molar ratio; native gel or EMSA; 400 nM RNA (RyhB, 3'ETSleuZ or CyaR) with or without 400 nM Hfq hexamer, PNPase at 1:1 and 1:3 RNA:PNPase trimer; 20 mM Tris pH 7.5, 100 mM NaCl, 1 mM MgCl2, 1 mM DTT, 30°C 20 min; gel in tris-glycine pH 8.5; both purified

B1: PNPase S1x4 (PNPase R681A, Q682A, R684A, R686A) (enzyme, UniProt P05055 1-711)
chain: MLNPIVRKFQYGQHTVTLETGMMARQATAAVMVSMDDTAVFVTVVGQKKAKPGQDFFPLTVNYQERTYAAGRIPGSFFRREGRPSEGETLIARLIDRPIRPLFPEGFVNEVQVIATVVSVNPQVNPDIVAMIGASAALSLSGIPFNGPIGAARVGYINDQYVLNPTQDELKESKLDLVVAGTEAAVLMVESEAQLLSEDQMLGAVVFGHEQQQVVIQNINELVKEAGKPRWDWQPEPVNEALNARVAALAEARLSDAYRITDKQERYAQVDVIKSETIATLLAEDETLDENELGEILHAIEKNVVRSRVLAGEPRIDGREKDMIRGLDVRTGVLPRTHGSALFTRGETQALVTATLGTARDAQVLDELMGERTDTFLFHYNFPPYSVGETGMVGSPKRREIGHGRLAKRGVLAVMPDMDKFPYTVRVVSEITESNGSSSMASVCGASLALMDAGVPIKAAVAGIAMGLVKEGDNYVVLSDILGDEDHLGDMDFKVAGSRDGISALQMDIKIEGITKEIMQVALNQAKGARLHILGVMEQAINAPRGDISEFAPRIHTIKINPDKIKDVIGKGGSVIRALTEETGTTIEIEDDGTVKIAATDGEKAKHAIRRIEEITAEIEVGRVYTGKVTRIVDFGAFVAIGGGKEGLVHISQIADKRVEKVTDYLQMGQEVPVKVLEVDAAGAIALSIKEATEQSQPAAAPEAPAAEQGE
binding: no binding
